Results deposited as PubChem BioAssay AID652259 (Drosophila RNAi Screening Center, 2013).

Assay: 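Knock-downs that push a Wingless-driven reporter up or down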 (primary screen)
Cell system: Drosophila clone 8 imaginal disc epithelial cells
Reagents: long dsRNA against Drosophila genes
Treatment: pathway stimulated by co-transfected Wingless expression plasmid
Read-out: 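Dual luciferase reads per well after Wingless plasmid stimulation: reporter firefly light and Renilla control light; activity is firefly divided by Renilla, a ratio not deposited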
Reading the numbers: firefly reporter light: higher = more Wg reporter light, before normalisation; Renilla control light: higher = more transfected or surviving cells
Call rule: 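Strong candidates differ from their plate mean by at least two out of four per-plate statistical tests; weak candidates meet just one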
Meaning of the calls: active = candidate regulator (raises or lowers reporter); inactive = not a candidate
In all, the deposit lists about 22,000 reagents; this is a random part of those with a known target gene and a result. Over the whole deposit, 233 (1.1%) got an active call. 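Light values are raw, unnormalised plate reads; the ratio scores behind the reporter calls were not deposited.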 A number with no mark means an inactive call. The numbers tell different reagents against one gene apart. Names joined by + are all predicted targets of the reagent. Not stated in the record: the amount of reagent, the time to read-out, the dose of the treatment.

The opening 9 entries, to show the layout:
gene	reagent	reporter change call, replicate 1	firefly reporter light, replicate 1	firefly reporter light, replicate 2	Renilla control light, replicate 1	Renilla control light, replicate 2
Elovl7	1		18848		4544	
Elovl7	2		2.05e5	2.66e5	1.95e5	1.50e5
Myc	1		12729		3675	
Fdx2	1		6836		3639	
ArgRS-m	1		12572		3142	
CG42455 + vnc	1		5827		2936	
CG9338	1		9457		3632	
dysc	1		8411		3651	
dysc	2		11226		3687	

The list itself, from the first entry:
gene	reagent	reporter change call, replicate 1	firefly reporter light, replicate 1	firefly reporter light, replicate 2	Renilla control light, replicate 1	Renilla control light, replicate 2
Elovl7	1		18848		4544	
Elovl7	2		2.05e5	2.66e5	1.95e5	1.50e5
Myc	1		12729		3675	
Fdx2	1		6836		3639	
ArgRS-m	1		12572		3142	
CG42455 + vnc	1		5827		2936	
CG9338	1		9457		3632	
dysc	1		8411		3651	
dysc	2		11226		3687	
dysc	3		7.13e5	7.13e5	3.55e5	3.74e5
dysc	4		6.72e5	7.27e5	1.81e5	1.53e5
dysc	5		5.85e5	6.17e5	2.38e5	3.06e5
CG13526	1		2369	8836	824	3355
CG5921	1		3291		1443	
CG5921	2		16904		8805	
Neu2	1		18273		6042	
CG1428	1		2758	4454	722	2163
CG32755	1		19155		9799	
COX7AL	1		9707		3012	
mTerf5	1		2898	7787	1653	2320
CG9776	1		10616		4209	
5-HT2B	1		10982		3437	
5-HT2B	2		10080		3098	
Top3beta	1		3059	9616	1017	1872
CG31636	1		2484	5643	916	2342
Obp57a	1		5.41e5	5.66e5	2.48e5	2.44e5
CG7768	1		3125		1600	
Jhbp13	1		4448	9440	1319	3137
glu	1		5722		1979	
CG14088	1		16832		5548	
CG6688	1		15621		13200	
sing	1		19597		8739	
Br140	1		9618		1964	
Muc4B	1		21334		9546	
Muc4B	2		26993		12824	
CG18171	1		4261		3264	
Nt5a	1		17335		5477	
CG6607	1		23574		17354	
gfzf	1		6730		1968	
gfzf	2		4.95e5	4.49e5	1.45e5	1.58e5
Achl	1	Wg reporter activity lowered	4056		1920	
CG43867	1		2677		1232	
CG43867	2		24745		12970	
CG43867	3		20678		11968	
CG43867	4		21878	6.65e5	18390	2.81e5
CG43867	5		17066		14914	
CG30048	1		4.42e5	5.33e5	1.94e5	2.24e5
CG31111	1		19971		16037	
Lip3	1		13940	7.07e5	4698	3.20e5
Cht12	1		12042		6912	
CR16735	1		19280		5429	
t	1		20027		9349	
Fmo-2	1		12448		3714	
kek4	1		10679		2197	
CG12693	1		17162		7936	
CG43795 + SkpF	1		3206	9249	905	2566
CG18302	1		2113	7200	592	3301
CG1927	1		15436		4660	
CG42562	1		9690		3581	
CG1299	1		6984		3034	
CG14615	1		12003		7872	
Mur18B	1		2013	7368	729	2448
CG14567	1		15384		5156	
Capa	1		5442	5468	1897	2218
Dh44-R1	1		12468		2917	
CG33340	1		13864		11393	
CG6287	1		6138		2256	
f-cup	1		11270		2902	
CG14621	1		9239		7661	
CG7745	1		9463		1226	
CG6321	1		7628		3329	
Fer1HCH	1		2912	7090	1052	1865
CG43446	1		2477		1373	
